# The list shows a part of the results.
# B1: Epa21 (Candida glabrata) (protein)
# chain: MGSSHHHHHHSSGLVPRGSHMASTPNIESHPQGCSPVDTSGIKPGLKMDLYRFPITPPGTGCWSWDWLTVTPDFPRSGYWKWPKIAEVDGVVGPLHLDSGHPTCDPLTSVLPHGFNYLQSITTTNFTMVLHGYFVPKQSGKYTFEFKADDALLLNLGAGNAFSCCDYNNSQYNQGEYLAYAIWSKNNQTATLYLEKGIYYPIRVFYHNRCCGAYMDVVYYFNDSPIPNRDFSGLLFSIPDSDSCDANI
# Experiments:
# Assay in all cases: glycan array binding signal (z-score within array); higher = stronger binding
# Settings in all cases: glycan notation: IUPAC condensed, linker removed
# [1] = molecular target: GlcNAc(a1-6)Gal(b1-4)GlcNAc
# How it was run: (§1)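 Columns mapping to the same glycan were averaged after glycan names were converted to IUPAC-condensed notation. The data come from 3228 arrays in the Consortium for Functional Glycomics database, limited to those with an available protein sequence. Binding is reported as a within-array Z-score averaged across arrays of one protein sequence and across linkers.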
# [2] = molecular target: GlcNAc(b1-2)Gal(b1-3)GalNAc
# How it was run: as §1
# [3] = molecular target: GlcNAc(b1-2)Man(a1-3)[GlcNAc(b1-2)Man(a1-6)]Man(b1-4)GlcNAc(b1-4)GlcNAc
# How it was run: as §1
# [4] = molecular target: GlcNAc(b1-2)Man(a1-3)[GlcNAc(b1-2)Man(a1-6)]Man(b1-4)GlcNAc(b1-4)[Fuc(a1-6)]GlcNAc
# How it was run: as §1
# [5] = molecular target: GlcNAc(b1-2)Man(a1-3)[GlcNAc(b1-4)][GlcNAc(b1-2)Man(a1-6)]Man(b1-4)GlcNAc(b1-4)GlcNAc
# How it was run: as §1
# [6] = molecular target: GlcNAc(b1-2)Man(a1-3)[GlcNAc(b1-4)][GlcNAc(b1-2)Man(a1-6)]Man(b1-4)GlcNAc(b1-4)[Fuc(a1-6)]GlcNAc
# How it was run: as §1
# [7] = molecular target: GlcNAc(b1-2)[GlcNAc(b1-4)]Man(a1-3)[GlcNAc(b1-2)Man(a1-6)]Man(b1-4)GlcNAc(b1-4)GlcNAc
# How it was run: as §1
# [8] = molecular target: GlcNAc(b1-2)[GlcNAc(b1-4)]Man(a1-3)[GlcNAc(b1-4)][GlcNAc(b1-2)Man(a1-6)]Man(b1-4)GlcNAc(b1-4)GlcNAc
# How it was run: as §1
# [9] = molecular target: GlcNAc(b1-2)[GlcNAc(b1-4)]Man(a1-3)[GlcNAc(b1-4)][GlcNAc(b1-2)[GlcNAc(b1-6)]Man(a1-6)]Man(b1-4)GlcNAc(b1-4)GlcNAc
# How it was run: as §1
# [10] = molecular target: GlcNAc(b1-2)[GlcNAc(b1-4)]Man(a1-3)[GlcNAc(b1-4)][GlcNAc(b1-2)[GlcNAc(b1-6)]Man(a1-6)]Man(b1-4)GlcNAc(b1-4)[Fuc(a1-6)]GlcNAc
# How it was run: as §1
# [11] = molecular target: GlcNAc(b1-2)[GlcNAc(b1-6)]Man(a1-6)[GlcNAc(b1-2)Man(a1-3)]Man(b1-4)GlcNAc(b1-4)GlcNAc
# How it was run: as §1
# [12] = molecular target: GlcNAc(b1-2)[GlcNAc(b1-6)]Man(a1-6)[GlcNAc(b1-2)Man(a1-3)]Man(b1-4)GlcNAc(b1-4)[Fuc(a1-6)]GlcNAc
# How it was run: as §1
# [13] = molecular target: GlcNAc(b1-2)[GlcNAc(b1-6)]Man(a1-6)[GlcNAc(b1-4)][GlcNAc(b1-2)Man(a1-3)]Man(b1-4)GlcNAc(b1-4)GlcNAc
# How it was run: as §1
# [14] = molecular target: GlcNAc(b1-3)Fuc
# How it was run: as §1
# [15] = molecular target: GlcNAc(b1-3)Gal
# How it was run: as §1
# [16] = molecular target: GlcNAc(b1-3)Gal(b1-3)GalNAc
# How it was run: as §1
# [17] = molecular target: GlcNAc(b1-3)Gal(b1-4)Glc
# How it was run: as §1
# [18] = molecular target: GlcNAc(b1-3)Gal(b1-4)GlcNAc
# How it was run: as §1
# [19] = molecular target: GlcNAc(b1-3)Gal(b1-4)GlcNAc(b1-2)Man(a1-3)[GlcNAc(b1-3)Gal(b1-4)GlcNAc(b1-2)Man(a1-6)]Man(b1-4)GlcNAc(b1-4)GlcNAc
# How it was run: as §1
# [20] = molecular target: GlcNAc(b1-3)Gal(b1-4)GlcNAc(b1-2)Man(a1-3)[GlcNAc(b1-3)Gal(b1-4)GlcNAc(b1-2)Man(a1-6)]Man(b1-4)GlcNAc(b1-4)[Fuc(a1-6)]GlcNAc
# How it was run: as §1
# [21] = molecular target: GlcNAc(b1-3)Gal(b1-4)GlcNAc(b1-2)[GlcNAc(b1-3)Gal(b1-4)GlcNAc(b1-6)]Man(a1-6)[GlcNAc(b1-3)Gal(b1-4)GlcNAc(b1-2)Man(a1-3)]Man(b1-4)GlcNAc(b1-4)GlcNAc
# How it was run: as §1
# [22] = molecular target: GlcNAc(b1-3)Gal(b1-4)GlcNAc(b1-3)Gal(b1-4)GlcNAc
# How it was run: as §1
# [23] = molecular target: GlcNAc(b1-3)Gal(b1-4)GlcNAc(b1-3)Gal(b1-4)GlcNAc(b1-2)Man(a1-3)[GlcNAc(b1-3)Gal(b1-4)GlcNAc(b1-3)Gal(b1-4)GlcNAc(b1-2)Man(a1-6)]Man(b1-4)GlcNAc(b1-4)GlcNAc
# How it was run: as §1
# [24] = molecular target: GlcNAc(b1-3)Gal(b1-4)GlcNAc(b1-3)Gal(b1-4)GlcNAc(b1-2)Man(a1-3)[GlcNAc(b1-3)Gal(b1-4)GlcNAc(b1-3)Gal(b1-4)GlcNAc(b1-2)Man(a1-6)]Man(b1-4)GlcNAc(b1-4)[Fuc(a1-6)]GlcNAc
# How it was run: as §1
# [25] = molecular target: GlcNAc(b1-3)Gal(b1-4)GlcNAc(b1-3)Gal(b1-4)GlcNAc(b1-2)[GlcNAc(b1-3)Gal(b1-4)GlcNAc(b1-3)Gal(b1-4)GlcNAc(b1-6)]Man(a1-6)[GlcNAc(b1-3)Gal(b1-4)GlcNAc(b1-3)Gal(b1-4)GlcNAc(b1-2)Man(a1-3)]Man(b1-4)GlcNAc(b1-4)[Fuc(a1-6)]GlcNAc
# How it was run: as §1
# [26] = molecular target: GlcNAc(b1-3)Gal(b1-4)GlcNAc(b1-3)Gal(b1-4)GlcNAc(b1-3)Gal(b1-4)GlcNAc(b1-2)Man(a1-3)[GlcNAc(b1-3)Gal(b1-4)GlcNAc(b1-3)Gal(b1-4)GlcNAc(b1-3)Gal(b1-4)GlcNAc(b1-2)Man(a1-6)]Man(b1-4)GlcNAc(b1-4)GlcNAc
# How it was run: as §1
# [27] = molecular target: GlcNAc(b1-3)Gal(b1-4)GlcNAc(b1-3)Gal(b1-4)GlcNAc(b1-3)Gal(b1-4)GlcNAc(b1-2)Man(a1-3)[GlcNAc(b1-3)Gal(b1-4)GlcNAc(b1-3)Gal(b1-4)GlcNAc(b1-3)Gal(b1-4)GlcNAc(b1-2)Man(a1-6)]Man(b1-4)GlcNAc(b1-4)[Fuc(a1-6)]GlcNAc
# How it was run: as §1
# [28] = molecular target: GlcNAc(b1-3)Gal(b1-4)GlcNAc(b1-3)Gal(b1-4)GlcNAc(b1-3)Gal(b1-4)GlcNAc(b1-2)[GlcNAc(b1-3)Gal(b1-4)GlcNAc(b1-3)Gal(b1-4)GlcNAc(b1-3)Gal(b1-4)GlcNAc(b1-6)]Man(a1-6)[GlcNAc(b1-3)Gal(b1-4)GlcNAc(b1-3)Gal(b1-4)GlcNAc(b1-3)Gal(b1-4)GlcNAc(b1-2)Man(a1-3)]Man(b1-4)GlcNAc(b1-4)[Fuc(a1-6)]GlcNAc
# How it was run: as §1
# [29] = molecular target: GlcNAc(b1-3)Gal(b1-4)GlcNAc(b1-3)Gal(b1-4)GlcNAc(b1-3)Gal(b1-4)GlcNAc(b1-3)Gal(b1-4)GlcNAc(b1-2)Man(a1-3)[GlcNAc(b1-3)Gal(b1-4)GlcNAc(b1-3)Gal(b1-4)GlcNAc(b1-3)Gal(b1-4)GlcNAc(b1-3)Gal(b1-4)GlcNAc(b1-2)Man(a1-6)]Man(b1-4)GlcNAc(b1-4)GlcNAc
# How it was run: as §1
# [30] = molecular target: GlcNAc(b1-3)Gal(b1-4)GlcNAc(b1-3)Gal(b1-4)GlcNAc(b1-3)Gal(b1-4)GlcNAc(b1-3)Gal(b1-4)GlcNAc(b1-2)Man(a1-3)[GlcNAc(b1-3)Gal(b1-4)GlcNAc(b1-3)Gal(b1-4)GlcNAc(b1-3)Gal(b1-4)GlcNAc(b1-3)Gal(b1-4)GlcNAc(b1-2)Man(a1-6)]Man(b1-4)GlcNAc(b1-4)[Fuc(a1-6)]GlcNAc
# How it was run: as §1
# [31] = molecular target: GlcNAc(b1-3)Gal(b1-4)GlcNAc(b1-3)Gal(b1-4)GlcNAc(b1-3)Gal(b1-4)GlcNAc(b1-3)Gal(b1-4)GlcNAc(b1-2)[GlcNAc(b1-3)Gal(b1-4)GlcNAc(b1-3)Gal(b1-4)GlcNAc(b1-3)Gal(b1-4)GlcNAc(b1-3)Gal(b1-4)GlcNAc(b1-6)]Man(a1-6)[GlcNAc(b1-3)Gal(b1-4)GlcNAc(b1-3)Gal(b1-4)GlcNAc(b1-3)Gal(b1-4)GlcNAc(b1-3)Gal(b1-4)GlcNAc(b1-2)Man(a1-3)]Man(b1-4)GlcNAc(b1-4)[Fuc(a1-6)]GlcNAc
# How it was run: as §1
# [32] = molecular target: GlcNAc(b1-3)Gal(b1-4)GlcNAc(b1-3)Gal(b1-4)GlcNAc(b1-3)GalNAc
# How it was run: as §1
# [33] = molecular target: GlcNAc(b1-3)Gal(b1-4)GlcNAc(b1-3)GalNAc
# How it was run: as §1
# [34] = molecular target: GlcNAc(b1-3)Gal(b1-4)GlcNAc(b1-3)[GlcNAc(b1-3)Gal(b1-4)GlcNAc(b1-3)]GalNAc
# How it was run: as §1
# [35] = molecular target: GlcNAc(b1-3)Gal(b1-4)GlcNAc(b1-6)[Gal(b1-3)]GalNAc
# How it was run: as §1
# [36] = molecular target: GlcNAc(b1-3)Gal(b1-4)GlcNAc(b1-6)[GlcNAc(b1-3)Gal(b1-3)]GalNAc
# How it was run: as §1
# [37] = molecular target: GlcNAc(b1-3)Gal(b1-4)GlcNAc(b1-6)[GlcNAc(b1-3)]Gal(b1-4)GlcNAc
# How it was run: as §1
binder,measurement,setting,value
B1,glycan array binding signal (z-score),[1],-0.825
same,glycan array binding signal (z-score),[2],-0.466
same,glycan array binding signal (z-score),[3],-0.432
same,glycan array binding signal (z-score),[4],0.343
same,glycan array binding signal (z-score),[5],-0.587
same,glycan array binding signal (z-score),[6],-0.612
same,glycan array binding signal (z-score),[7],-0.665
same,glycan array binding signal (z-score),[8],-0.349
same,glycan array binding signal (z-score),[9],-0.585
same,glycan array binding signal (z-score),[10],-0.52
same,glycan array binding signal (z-score),[11],-0.358
same,glycan array binding signal (z-score),[12],-0.735
same,glycan array binding signal (z-score),[13],-0.815
same,glycan array binding signal (z-score),[14],-0.247
same,glycan array binding signal (z-score),[15],-0.833
same,glycan array binding signal (z-score),[16],-0.094
same,glycan array binding signal (z-score),[17],-0.055
same,glycan array binding signal (z-score),[18],-0.589
same,glycan array binding signal (z-score),[19],-0.44
same,glycan array binding signal (z-score),[20],0.136
same,glycan array binding signal (z-score),[21],0.427
same,glycan array binding signal (z-score),[22],-1.1
same,glycan array binding signal (z-score),[23],1.46
same,glycan array binding signal (z-score),[24],1.52
same,glycan array binding signal (z-score),[25],0.575
same,glycan array binding signal (z-score),[26],0.199
same,glycan array binding signal (z-score),[27],1.66
same,glycan array binding signal (z-score),[28],0.289
same,glycan array binding signal (z-score),[29],0.756
same,glycan array binding signal (z-score),[30],0.735
same,glycan array binding signal (z-score),[31],-0.202
same,glycan array binding signal (z-score),[32],0.384
same,glycan array binding signal (z-score),[33],-0.056
same,glycan array binding signal (z-score),[34],0.027
same,glycan array binding signal (z-score),[35],0.399
same,glycan array binding signal (z-score),[36],0.504
same,glycan array binding signal (z-score),[37],-0.54

# An excerpt of the results above, for reference:
binder,measurement,setting,value
B1,glycan array binding signal (z-score),[17],-0.055
same,glycan array binding signal (z-score),[18],-0.589
same,glycan array binding signal (z-score),[19],-0.44

# — the supplement of paper PMC8728848
